PubChem BioAssay AID504764, Drosophila RNAi Screening Center – 2011
Purpose: 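Genes whose knock-down alters Notch-dependent transcription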 (primary screen). System: Drosophila Kc167 cells. Knock-down reagent: long dsRNA against Drosophila genes. Timing: about 5 days (4 days dsRNA, then 24 h after transfection). Challenge: transfection of constitutively active membrane-tethered Notch lacking the extracellular domain, read 24 h later. Detection: 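Firefly luciferase from an E(spl)m3 reporter with active Notch, plus control-promoter and uninduced reporter wells for normalisation; unnormalised counts, duplicate wells a and b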. Scale: induced reporter light, run 1, well a and induced reporter light, run 1, well b: higher = more light from the Notch target reporter with active Notch; control promoter light, run 1, well a and control promoter light, run 1, well b: higher = more light from the viral control promoter (cell number, transfection, viability); uninduced reporter light, run 1, well a: higher = more light from the Notch target reporter without active Notch. Call rule: 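Wells with low control signal or poorly matching duplicates excluded; duplicates averaged; per source plate, z beyond ±2 for induced/control log2 ratio or beyond ±1.8 for induced/uninduced marks a hit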. Calls: active = modifier hit (raised or lowered Notch signal); inactive = not a hit.
The screen tested about 22,000 reagents; below is an unselected part of those with a known target gene and a result. Of all reagents, 403 (1.9%) got an active call. 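Unnormalised raw counts per well; ratio z-scores behind the hit calls and whether each hit raises or lowers signal are not deposited.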 No sequences are given here. The record does not give: the amount of reagent.

target,amplicon,"induced reporter light, run 1, well a","induced reporter light, run 1, well b","control promoter light, run 1, well a","control promoter light, run 1, well b","uninduced reporter light, run 1, well a",Outcome
CG10834,DRSC03693,53520,40420,44280,47760,2935,inactive
Gdh,DRSC16679,1.01e5,1.44e5,2.23e5,2.60e5,12110,active
CG4483,DRSC10426,1.71e5,1.79e5,2.65e5,2.22e5,12045,inactive
stet,DRSC08246,1.14e5,1.62e5,1.50e5,1.57e5,6370,inactive
stet,DRSC08283,96230,1.27e5,1.59e5,1.81e5,6042,inactive
lola,DRSC05220,1.95e5,1.72e5,1.65e5,1.63e5,18790,inactive
lola,DRSC05221,2.18e5,2.31e5,2.73e5,3.17e5,20625,inactive
lola,DRSC05222,2.56e5,2.57e5,3.77e5,3.97e5,21155,inactive
lola,DRSC05223,97680,83745,77830,84750,15545,inactive
lola,DRSC05224,2.69e5,3.30e5,4.03e5,3.19e5,18865,inactive
lola,DRSC06738,1.18e5,1.26e5,89485,86375,14145,inactive
lola,DRSC06739,65245,83285,74085,76610,11105,inactive
lola,DRSC06740,96390,91345,66400,66500,8200,inactive
lola,DRSC06741,2.44e5,2.18e5,2.49e5,2.64e5,19688,inactive
lola,DRSC06742,11740,10885,13130,12310,3580,inactive
lola,DRSC07646,1.80e5,1.64e5,1.54e5,1.52e5,12570,inactive
lola,DRSC07647,1.12e5,88720,1.12e5,90875,9650,inactive
wit,DRSC08741,1.81e5,1.09e5,1.03e5,41225,10925,inactive
CG15536,DRSC15072,1.18e5,1.04e5,1.62e5,1.77e5,12688,inactive
GluClalpha,DRSC16680,2.43e5,2.15e5,2.26e5,2.18e5,14205,inactive
